Assay results published in the supplement of paper PMC3334620.
The full ranking holds about 33,000 sequences; the median of “E-score (-0.5 to 0.5)” is about -0.015, and the highest 2% start at about 0.3. This is one part of the list.

target: T1, Abf1 (UniProt P14164); experiment: PBM E-score (8-mer binding enrichment) (E-score (-0.5 to 0.5)); higher = stronger / more preferred TF binding; conditions: protein concentration: 200 nM; construct: GST-full length
T1 sequence: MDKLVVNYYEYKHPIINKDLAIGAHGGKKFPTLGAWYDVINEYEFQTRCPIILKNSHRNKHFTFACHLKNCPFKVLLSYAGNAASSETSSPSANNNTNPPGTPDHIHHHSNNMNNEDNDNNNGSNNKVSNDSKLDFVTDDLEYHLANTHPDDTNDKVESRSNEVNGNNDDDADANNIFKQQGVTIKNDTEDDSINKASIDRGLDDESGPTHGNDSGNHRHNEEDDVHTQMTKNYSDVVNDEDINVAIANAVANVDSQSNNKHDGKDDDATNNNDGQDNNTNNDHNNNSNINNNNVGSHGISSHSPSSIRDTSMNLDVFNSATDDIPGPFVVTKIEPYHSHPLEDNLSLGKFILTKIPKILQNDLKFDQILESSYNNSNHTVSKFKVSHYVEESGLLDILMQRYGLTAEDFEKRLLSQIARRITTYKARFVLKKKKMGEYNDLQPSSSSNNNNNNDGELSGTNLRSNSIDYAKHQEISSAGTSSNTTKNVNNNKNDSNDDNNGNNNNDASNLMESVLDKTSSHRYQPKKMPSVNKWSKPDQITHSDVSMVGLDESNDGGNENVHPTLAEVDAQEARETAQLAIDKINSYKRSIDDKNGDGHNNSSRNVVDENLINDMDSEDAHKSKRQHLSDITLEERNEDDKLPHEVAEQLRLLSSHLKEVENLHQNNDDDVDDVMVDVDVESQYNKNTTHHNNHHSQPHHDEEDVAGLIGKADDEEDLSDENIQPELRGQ
Summary of the method: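 For each ungapped eight-base word taken together with its reverse complement, the Universal PBM Analysis Suite assigned an E-score. Binding data came from GST-tagged yeast transcription factors, applied at about 100-200 nM, on universal all-10-mer Agilent arrays made double-stranded by primer extension. Fluorescent anti-GST marked bound protein, and scans were normalised with masliner.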

Row | Sequence | PBM E-score
1 | CCACGTCA | 0.247
2 | CAGATACG | -0.0415
3 | AAACGCCT | -0.273
4 | AGATATGA | 0.105
5 | CGCTCAGC | 0.21
6 | CGTCTGCA | 0.125
7 | GAAATGTA | 0.194
8 | CGAGTGAA | -0.14
9 | GACTTCCA | -0.18
10 | CATCTCAA | 0.0491
11 | GTCTGAGA | 0.0698
12 | ATCTAGAC | -0.0647
13 | CTCGAAGA | -0.199
14 | TGACCGCA | 0.0759
15 | CAGAATAC | 0.0059
16 | AAATCTCA | 0.0662
17 | AATGTAAC | 0.0935
18 | CCCCGCAC | -0.22
19 | GAGGGTTA | -0.174
20 | TAAATGTA | 0.156
21 | AGGGTCAC | 0.0338
22 | CCAATCCG | 0.106
23 | AGCAAATC | 0.0918
24 | GGAGAGGA | -0.313
25 | ACGTCATC | 0.294

Row | Sequence | PBM E-score
26 | AGCTAAGA | -0.117
27 | GAGTCAAA | 0.00766
28 | GCCGACCC | -0.189
29 | ACTGTTGC | 0.0743
30 | CCATGGGC | -0.148
31 | CATTCTCG | -0.135
32 | CAACACTC | 0.0627
33 | GGTGTGAC | -0.174
34 | ATTGATAC | 0.0766
35 | CACATAAA | 0.227
36 | GCCGTGTA | 0.239
37 | CGCCCATA | 0.0703
38 | TAGTCAGA | -0.142
39 | CTGAACTA | -0.171
40 | GGCGAGAA | 0.0803
41 | CCTTGACC | -0.201
42 | AGTCCGTG | -0.0678
43 | TTGCCCAA | -0.0732
44 | GTCGAGAC | -0.00305
45 | CGAGCGAA | -0.0729
46 | CGTCGTAG | 0.192
47 | ACGGCACG | 0.175
48 | TACTCACA | 0.0223
49 | CGTATGTA | 0.229
50 | AATTGCAG | -0.154

Row | Sequence | PBM E-score
51 | AACTCATG | -0.128
52 | GAGGGTCC | -0.238
53 | GGCGGTCA | -0.0623
54 | TAGTTAAA | 0.12
55 | ACCCAGCC | -0.186
56 | GCGCCGAA | -0.0451
57 | CATGATCC | 0.00859
58 | CCGTGGGA | 0.0628
59 | CAGAGCCC | 0.00619
60 | CCTACCTA | -0.0209
61 | AAAGCCGA | -0.259
62 | TCGAACCA | -0.247
63 | CGTCGTCA | 0.24
64 | AGTCAGGC | 0.0254
65 | CATCTGAA | 0.06
66 | GAATCATC | 0.152
67 | GCTCGTAC | 0.0657
68 | GGCGGTTA | -0.237
69 | ACCGATTC | -0.225
70 | GCAAGAGA | -0.122
71 | AGCAGGAA | -0.0572
72 | CCGGAACG | -0.125
73 | AAGGATCT | -0.165
74 | CGAAACTC | -0.0892
75 | ATAGACTG | -0.13

Row | Sequence | PBM E-score
76 | ATCCGAAT | 0.219
77 | CTGTGATA | 0.201
78 | AATACATG | 0.00322
79 | CGATATTC | 0.225
80 | ACCTCTAA | -0.0204
81 | AGGCTGGG | -0.164
82 | ACGACCAG | 0.301
83 | TGTATTAA | 0.126
84 | AGCATTAA | -0.00473
85 | CTGTGGTC | -0.285
86 | CTATCAGA | -0.134
87 | ACGCGCGC | 0.151
88 | AAACCCCA | -0.0864
89 | GGGGCCTA | -0.355
90 | CTATCAAG | 0.0452
91 | GTCTTCAC | 0.126
92 | GTAGTAAA | 0.0925
93 | ACAACTAC | -0.00862
94 | GCACGTAA | -0.0457
95 | ATCCGCAG | 0.104
96 | CGCTATAG | -0.297
97 | GTCTTCCA | -0.112
98 | ACATAATG | 0.127
99 | ACGATAAT | 0.303
100 | ATAATTAC | 0.261

Row | Sequence | PBM E-score
101 | CTGCGAAC | 0.126
102 | AAGGACAG | 0.00492
103 | GTTAGGTA | 0.127
104 | ATATCGTA | 0.203
105 | ATAGAGCC | -0.19
106 | GCGACGGA | 0.0544
107 | ACAGGAGG | -0.337
108 | AGATATAC | 0.0837
109 | AATGGAGG | -0.133
110 | CCAAGGTA | -0.0719
111 | GGCAGGTA | -0.196
112 | ATATTAGA | 0.209
113 | GTGTTAAA | 0.172
114 | CCATGCCG | 0.0676
115 | AAAGACTC | -0.122
116 | AGAAACGC | -0.132
117 | ATGTCCGG | -0.00994
118 | AAAGGAGA | -0.185
119 | ACCGGCTA | -0.0984
120 | GGAAGCGA | 0.0737
121 | GCTTGACC | -0.231
122 | AAGGATAA | -0.0479
123 | CTAATGTA | 0.0488
124 | GAAGAAAC | -0.133
125 | AAACTAAA | 0.0822

Random excerpt: 6 entries already listed.
Row | Sequence | PBM E-score
116 | AGAAACGC | -0.132
118 | AAAGGAGA | -0.185
123 | CTAATGTA | 0.0488
103 | GTTAGGTA | 0.127
121 | GCTTGACC | -0.231
106 | GCGACGGA | 0.0544

Next results.

Row | Sequence | PBM E-score
126 | ACAGCTAC | -0.0185
127 | GCTCGTCA | 0.259
128 | GGCTAACC | -0.214
129 | TGTAAACA | -0.0609
130 | CATCGCTA | 0.287
131 | CCGGAAAG | -0.205
132 | GTAGGTAA | -0.0914
133 | TAACCACA | 0.0853
134 | ATAACGCA | -0.0614
135 | ACGGTCAT | 0.146
136 | CGGGAAAG | -0.13
137 | CGCATTTC | -0.0669
138 | ACATGTAC | 0.0562
139 | CTCTGACC | -0.254
140 | CTTCTGTC | 0.123
141 | TGGATCAA | 0.0614
142 | ACGGATGC | -0.113
143 | ACCCATGA | -0.115
144 | ACCCCCGA | -0.223
145 | GCATACCA | -0.137
146 | CACGGAGC | 0.111
147 | GGACGTAA | 0.104
148 | GGGAACTA | -0.0326
149 | CCAAATCA | 0.0489
150 | GAGCCCGC | -0.19

Row | Sequence | PBM E-score
151 | ATCGCATC | 0.0782
152 | GATGAAGA | 0.0748
153 | GGCTCCAA | -0.147
154 | AGAGTGGC | -0.251
155 | AGTCTGTA | -0.278
156 | ATAGACCC | -0.0996
157 | CAGTCGAC | 0.137
158 | CTGTTTTC | -0.0882
159 | AACCTCTA | -0.167
160 | ACAGGAGC | -0.0079
161 | CTGCGCCA | -0.0463
162 | AACTTCGC | 0.0243
163 | TGTCCGAA | 0.2
164 | AGGTTGAG | -0.122
165 | ATAATGAC | 0.258
166 | AGCTCAAT | -0.0573
167 | AGTAGAGC | -0.168
168 | CTTACTCA | -0.139
169 | CCAGCAGG | -0.109
170 | GTGCGGTA | -0.0342
171 | ATAGAAAC | 0.0214
172 | AACGTATC | 0.18

Individual results from the results shown:
Under PBM E-score, AAGGATAA has -0.0479
Under PBM E-score, AAAGACTC has -0.122
Under PBM E-score, CCAAATCA has 0.0489
Under PBM E-score, ATAGACTG has -0.13
